According to PubChem BioAssay AID485314 (National Center for Advancing Translational Sciences (NCATS), 2010):
The whole screen tested about 340,000 compounds, of which about 4,500 (1.3%) were called active. The inconclusive results got no clear call from the source; some entries with a clear call stand among them for comparison. Calls follow the shape of the dose curve; as a rule, active = well fitted inhibition curve with a large enough effect; inconclusive = small, poorly fitted or top-dose-only effect, or another doubt; inactive = no such curve, though single readings can be large or run the other way. A potency beside an inconclusive call is a rough fit, not a confirmed value.

Target: DNA polymerase beta (Homo sapiens) (UniProt P06746)
Assay: qHTS Assay for Inhibitors of DNA Polymerase Beta
Conditions: Pol beta primer extension/strand displacement, fluorescence kinetic; activity change, negative = inhibition: at 114 µM (top of the series)
In short: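 Reaction started by 50 nM substrate onto compound-treated Pol beta (10 nM, 15 min preincubation, room temperature); plates read at 0 min and 10 min. Normalized concentration-effect data fitted by four-parameter Hill equation.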
% is scaled to controls: 0 for no effect and ±100 for the full control effect; potency is read from the fitted curve at half-maximal effect.

Activity change, negative = inhibition, inactive:
CCCCC[n+]1cccc2c3ccccc3ccc21 1.13%
COC(=O)C(C(C)=O)C1=C/C(=N\S(=O)(=O)c2ccc(C)cc2)c2ccccc2C1=O (centres undefined) -1.73%
CCc1cccc2sc(N3CCN(C(=O)C4CC4)CC3)nc12 0.481%
Cc1ccc(C2C(C(=O)c3cc4ccccc4o3)=C(O)C(=O)N2c2cc(C)on2)cc1 (centres undefined) 44.3%

Potency, inconclusive:
Brc1cccc(C2CC(c3ccccc3)n3nnnc3N2)c1 (centres undefined) 7.94 µM [inhibitor, full curve]
Cc1cc(F)c(F)c(C(=O)NC2CC2)c1Cl 89.1 µM [inhibitor, single point]
O=C(O)CSc1nnc(-c2ccc3c(c2)OCO3)o1 0.891 µM [inhibitor, full curve, poor fit]
Cc1ccc(S(=O)(=O)Nc2ccc(S(=O)(=O)N3CCOCC3)cc2)cc1[N+](=O)[O-] 89.1 µM [inhibitor, single point]
CCCC(Oc1ccc(Br)cc1)c1nc2c3cc(OC)c(OC)cc3nc(=S)n2[nH]1 (centres undefined) 89.1 µM [inhibitor, single point]
COc1ccc(NC(=O)CCS(=O)(=O)c2cc3c(cc2C)NC(=O)CO3)cc1 79.4 µM [inhibitor, single point]
CCN(CC)c1ccc(-c2nc(-c3ccncc3)no2)cc1[N+](=O)[O-] 14.1 µM [inhibitor, partial curve, poor fit]
C=CCn1c(SCc2ccccc2)nc2c1c(=O)[nH]c(=O)n2C 5.62 µM [inhibitor, full curve]
CCCCn1nc(CC(=O)NCCN(CC)CC)c2ccccc2c1=O 0.141 µM [inhibitor, full curve, poor fit]
O=C(NC1=NCCS1)C1CC(=O)N(c2ccc(F)cc2)C1 (centres undefined) 100 µM [inhibitor, single point]
Clc1ccc(C2=CC(c3ccco3)n3ncnc3N2)cc1 (centres undefined) 35.5 µM [inhibitor, single point]
COc1ccc2[nH]c3c(Cl)ncnc3c2c1 35.5 µM [inhibitor, single point]
COc1cccc(C(=O)N(Cc2nc(-c3cccc(C)c3)no2)C(C)C)c1OC 28.2 µM [inhibitor, single point]
O=C(CSc1nnc2c(n1)[nH]c1ccccc12)NCc1ccco1 11.2 µM [inhibitor, full curve]

Not a retest: an excerpt of the list.
Potency, inconclusive:
COc1cccc(C(=O)N(Cc2nc(-c3cccc(C)c3)no2)C(C)C)c1OC 28.2 µM [inhibitor, single point]
O=C(CSc1nnc2c(n1)[nH]c1ccccc12)NCc1ccco1 11.2 µM [inhibitor, full curve]

Next part:

Potency, active:
NC(=O)CN1CCN(C(=O)NC2CCCCC2)CC1 31.6 µM
